{"source": "PubChem BioAssay AID1508597 | Cure First | 2020", "purpose": "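Knock-downs altering ovarian cancer cell survival with or without PARP inhibitor rucaparib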 (primary screen)", "system": "human ovarian carcinoma lines grown from tumours: OCI-P5x (papillary serous) and OCI-C5x (clear cell)", "reagents": "siRNA pool against human genes, 1.25 pmol siRNA per well", "timing": "72 h or 96 h, depending on the cell culture", "treatment": "rucaparib 20 µM (about IC30) or vehicle, present until read-out", "rucaparib or vehicle": "Vehicle", "cell line": "OCI-C5x (clear cell)", "read-out": "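Luminescent ATP-based viability assay read 72 or 96 h after transfection, depending on culture, given as normalised percent viability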", "direction": "viability, normalised: higher = more viable cells remaining", "hit rule": "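Active when normalised viability falls below 80 percent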", "meaning of the calls": "active = viability under 80%; inactive = viability 80% or more", "note": "This is a random part of the about 2,100 reagents, in one setting of the screen. 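Calls flag viability under 80% in either arm, not effects specific to rucaparib; the reference for percent is not stated.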 Unmarked entries are inactive. Not stated in the record: the 100% reference."}
{"gene knocked down": "NLK", "technical replicate": "1", "viability, normalised (%)": "71.4 (active)"}
{"gene knocked down": "NLK", "technical replicate": "2", "viability, normalised (%)": "66.7 (active)"}
{"gene knocked down": "NLK", "technical replicate": "3", "viability, normalised (%)": "53.8 (active)"}
{"gene knocked down": "SMPD1", "technical replicate": "1", "viability, normalised (%)": "54 (active)"}
{"gene knocked down": "SMPD1", "technical replicate": "2", "viability, normalised (%)": "47.9 (active)"}
{"gene knocked down": "SMPD1", "technical replicate": "3", "viability, normalised (%)": "47.6 (active)"}
{"gene knocked down": "HDGF", "technical replicate": "1", "viability, normalised (%)": "58.8 (active)"}
{"gene knocked down": "HDGF", "technical replicate": "2", "viability, normalised (%)": "53.7 (active)"}
{"gene knocked down": "HDGF", "technical replicate": "3", "viability, normalised (%)": "55.9 (active)"}
{"gene knocked down": "PDCD10", "technical replicate": "1", "viability, normalised (%)": "67.4 (active)"}
{"gene knocked down": "PDCD10", "technical replicate": "2", "viability, normalised (%)": "63.7 (active)"}
{"gene knocked down": "PDCD10", "technical replicate": "3", "viability, normalised (%)": "46.4 (active)"}
{"gene knocked down": "PHKA1", "technical replicate": "1", "viability, normalised (%)": 88}
{"gene knocked down": "PHKA1", "technical replicate": "2", "viability, normalised (%)": "61.1 (active)"}
{"gene knocked down": "PHKA1", "technical replicate": "3", "viability, normalised (%)": "59.9 (active)"}
{"gene knocked down": "INTS12", "technical replicate": "1", "viability, normalised (%)": "51.5 (active)"}
{"gene knocked down": "INTS12", "technical replicate": "2", "viability, normalised (%)": "41.2 (active)"}
{"gene knocked down": "INTS12", "technical replicate": "3", "viability, normalised (%)": "41.5 (active)"}
{"gene knocked down": "PCDHB2", "technical replicate": "1", "viability, normalised (%)": "52.6 (active)"}
{"gene knocked down": "PCDHB2", "technical replicate": "2", "viability, normalised (%)": "33.9 (active)"}
{"gene knocked down": "PCDHB2", "technical replicate": "3", "viability, normalised (%)": "43.7 (active)"}

Not a retest: an excerpt of the list.
{"gene knocked down": "SMPD1", "technical replicate": "1", "viability, normalised (%)": "54 (active)"}
{"gene knocked down": "SMPD1", "technical replicate": "2", "viability, normalised (%)": "47.9 (active)"}
{"gene knocked down": "SMPD1", "technical replicate": "3", "viability, normalised (%)": "47.6 (active)"}
